The list shows a part of the results. The main result of the screen is listed elsewhere. These columns were measured beside it and carry no call. The list favours compounds with an active or inconclusive main result. The note in brackets gives the kind of curve behind each potency; many fits are weak.
Assay: qHTS Assay for Lipid Storage Modulators in Drosophila S3 Cells;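 for cell number change: cells counted by Cell Tracker Red CMTPX staining in the red channel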
Details: BODIPY lipid droplet fluorescence, 18-24 h; for cell number change: measured here: cell count max response, cells fed with added oleic acid
In short: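 Drosophila S3 cells got compounds at several concentrations plus oleic acid (400 uM solution). Laser-scanning cytometry with 488 nm excitation read lipid droplets at 500-530 nm and cells at 575-640 nm. Percent activity was relative to 20 uM Triacsin C.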

[1] = measured here: lipid fluorescence (Fed channel) AC50, cells fed with added oleic acid
[2] = measured here: cell number channel AC50, cells fed with added oleic acid

| SMILES | cell number change | AC50 [1] | AC50 [2] |
| --- | --- | --- | --- |
| CC(=O)c1ccc(S(=O)(=O)NCCC(=O)OCC(=O)N2CCCC2=O)cc1 | -0.5% |  |  |
| O=C(NCC1CCCN1S(=O)(=O)c1cccs1)c1ccc(F)cc1 (stereo not given) | -8.43% |  |  |
| CCOC(=O)C1CCN(C(=O)CNC(=O)OC(C)(C)C)CC1 | -8.55% | 23.1 µM [falling, partial curve] |  |
| Cc1ccc(Cl)cc1NS(=O)(=O)c1cn(C)nc1C | 9.68% | 6.51 µM [falling, partial curve, poor fit] |  |
| CN(C)S(=O)(=O)c1ccc(S(=O)(=O)N(CC(=O)Nc2ccccc2)Cc2ccco2)cc1 | -88.2% | 29.1 µM [falling, partial curve] | 32.6 µM [falling, partial curve, poor fit] |
| CC(C1CCN(Cc2cn(C)nc2-c2cccc(Cl)c2)CC1)N1CCOCC1 (stereo not given) | -12.6% | 0.092 µM [falling, full curve, poor fit] |  |
| CCOc1ccc(CCNC(=O)CCS(=O)(=O)c2ccc(Cl)cc2)cc1OCC | -4.32% |  |  |
| COc1ccc(-c2nn(CC(=O)N3CCCCC3)c(=O)c3ccccc23)cc1 | -28.4% |  |  |
| Cc1ccc(C(=O)Nc2ccc(Cc3ccncc3)cc2)cc1[N+](=O)[O-] | 72.4% | 29.1 µM [rising, partial curve] | 29.1 µM [rising, single point] |
| CC(C)(C)c1ccc(-c2nc(-c3ccncc3)no2)cc1 | -49.7% | 20.6 µM [falling, partial curve] | 20.6 µM [falling, partial curve, poor fit] |
| Cc1cc(C)c(S(=O)(=O)NCC(c2ccco2)N2CCc3ccccc3C2)c(C)c1 (stereo not given) | 82.5% |  | 0.146 µM [falling, full curve, poor fit] |
| COCCCNc1ccc([N+](=O)[O-])cc1C(=O)Nc1cccc(C)n1 | 14% | 0.92 µM [rising, single point] | 4.11 µM [rising, single point] |
| Cc1cccc(N2C(=O)CC(Sc3nc(C)cc(C)n3)C2=O)c1 (stereo not given) | 1.97% | 13 µM [rising, partial curve] |  |
| O=C(NC1CCCCC1)c1cc(-c2ccco2)on1 | -10.3% | 0.651 µM [falling, full curve] |  |
| Cc1ccc(OCCCn2ccnc2)cc1C | 12.7% | 2.31 µM [rising, partial curve] | 1.64 µM [rising, partial curve] |
| CCOC(=O)N1CCC(NC(=O)c2cccs2)CC1 | -21.5% | 20.6 µM [falling, partial curve] |  |
| CCOc1cccc(/C=C2\NC(=S)N(c3ccccc3)C2=O)c1O | 5.68% | 20.6 µM [rising, single point] |  |
| COc1ccc(Cc2nnc(SCC(=O)c3ccc4c(c3)OCO4)o2)cc1 | -8.97% |  |  |
| CC1(C)CC(c2csc(N)n2)CCO1 (stereo not given) | 12.3% | 2.06 µM [rising, full curve] |  |
| CC(=O)c1ccc(N2CCN(C(=S)NCc3ccco3)CC2)cc1 | 4.63% |  | 4.11 µM [rising, partial curve, poor fit] |

| SMILES | cell number change | AC50 [1] | AC50 [2] |
| --- | --- | --- | --- |
| C=CCSc1ccccc1C(=O)Nc1ncn[nH]1 | -9.47% | 4.11 µM [rising, partial curve, poor fit] |  |
| CC(=O)C1=C(C)NC(SCC(N)=O)=C(C#N)C1c1cccnc1 (stereo not given) | 12.5% | 0.82 µM [rising, partial curve, poor fit] |  |
| COc1ccc(/C=N/NC(=O)Cc2csc(Nc3cccc(C(F)(F)F)c3)n2)c(OC)c1 | 18.3% |  |  |
| COc1ccc(C2CC(=O)c3cnc(Nc4cc(C)cc(C)c4)nc3C2)cc1 (stereo not given) | -9.35% |  |  |
| Cc1c(S(=O)(=O)NCCc2ccccc2)c(=O)n(C)c(=O)n1C | -16.4% | 2.59 µM [falling, full curve] |  |
| Nc1sc(-c2ccccc2)n[n+]1Cc1cccc2cccnc12 | -22% | 29.1 µM [falling, single point] |  |
| COCc1[nH]nc2c1C(c1ccc(OC)c(OC)c1)C(C#N)=C(N)O2 (stereo not given) |  |  | 0.92 µM [rising, partial curve] |
| CCCNC(=O)Cc1cc(=O)[nH]c(=O)[nH]1 |  | 23.1 µM [falling, partial curve, poor fit] |  |
| Oc1ccc(C2Nc3cccc4cccc(c34)N2)cc1 | -35.4% |  | 18.4 µM [falling, partial curve, poor fit] |
| CCCCn1c(=O)[nH]c(=O)c2c1nc(COc1ccc(C#N)cc1)n2CCC | 116% | 29.1 µM [rising, single point] | 13 µM [rising, partial curve] |
| S=c1[nH]nc(Nc2ccccc2Cl)s1 | -17.1% |  |  |
| O=C(NCC1COc2ccccc2O1)c1ccc(NC(=O)C(c2ccccc2)c2ccccc2)cc1 (stereo not given) | -2.51% | 2.06 µM [rising, partial curve] |  |
| COc1ccc(NC(=O)C2CCCN(c3cnccn3)C2)cc1 (stereo not given) | -15.5% |  |  |
| CCOc1cc(/C=N/NC(N)=O)cc(Br)c1OCC(=O)Nc1cccc2ccccc12 | -4.71% |  |  |
| COc1cc(OC)cc(C(=O)NC(=S)N(Cc2ccccc2)C(C)C)c1 | -23.5% | 29.1 µM [falling, single point] |  |
| CNc1nnc(SCC(=O)N2c3ccccc3NC(=O)CC2C)s1 (stereo not given) | 7.55% | 0.291 µM [rising, full curve, poor fit] |  |
| COc1ccccc1CCC(=O)Nc1cc(S(=O)(=O)N2CCOCC2)ccc1N1CCCC1 | -37.3% | 0.092 µM [falling, partial curve, poor fit] | 1.64 µM [falling, partial curve, poor fit] |
| COc1ccc(Cl)cc1NC(=O)C1CCCN(c2cc(C)nc3ncnn23)C1 (stereo not given) | -17.7% | 4.61 µM [rising, full curve] |  |
| Cc1nn(Cc2ccccc2Cl)c(C)c1C(=O)NCc1ccco1 | 5.21% | 0.13 µM [falling, full curve, poor fit] |  |
| Cc1ccc(S(=O)(=O)N2CCCC2C(=O)NCc2ccncc2)cc1 (stereo not given) | -6.49% | 0.146 µM [falling, full curve, poor fit] |  |

3 entries out of the list, arranged by SMILES length, smallest number first.

| SMILES | cell number change | AC50 [1] | AC50 [2] |
| --- | --- | --- | --- |
| S=c1[nH]nc(Nc2ccccc2Cl)s1 | -17.1% |  |  |
| CC(=O)C1=C(C)NC(SCC(N)=O)=C(C#N)C1c1cccnc1 (stereo not given) | 12.5% | 0.82 µM [rising, partial curve, poor fit] |  |
| COc1ccc(/C=N/NC(=O)Cc2csc(Nc3cccc(C(F)(F)F)c3)n2)c(OC)c1 | 18.3% |  |  |

Source: PubChem BioAssay AID2685 (National Center for Advancing Translational Sciences (NCATS), 2010)
